PubChem BioAssay AID504793 – Drosophila RNAi Screening Center, 2011

Test: 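Whole-genome screen for parts of the DNA damage checkpoint at G2/M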 (primary screen)
System: Drosophila S2R+ cells
Reagents: long dsRNA against Drosophila genes, about 0.25 µg dsRNA per well
Duration: 4 days of dsRNA, then 4 hours of drug before read-out
Challenge: doxorubicin 0.5 µM for 4 hours to cause double-strand breaks, in cells also given a low, harmless dose of dsRNA against nbs to sensitise the assay
Read-out: 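Per-well count of mitotic cells stained for phospho-histone H3 after doxorubicin exposure, used as mitotic index; counts are raw and not normalised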
Scale: mitotic cells: higher = more cells in mitosis, weaker G2 arrest
Hit rule: 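Genes are called active only when high mitotic counts were reproduced with independent dsRNAs and mitosis was checked for delay without damage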
Calls: active = confirmed in follow-up tests; inactive = not confirmed
In all, the deposit lists about 23,000 reagents; below is an unselected part of those that have a named target and a result. Over the whole deposit, 62 (0.27%) were called active. 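Calls come from follow-up tests whose scores are not deposited, so confirmed genes may have low counts here; counts are not normalised per plate.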 Raw values are not corrected between plates. Reagents against one gene are numbered here. Names joined by + are all predicted targets of the reagent.

Target gene,dsRNA no.,"mitotic cells, replicate 1",outcome
CG32599,1,5,inactive
CG32599,2,6,inactive
mRpL38,1,4,inactive
mRpL38,2,7,inactive
CG33270,1,10,inactive
mor,1,9,inactive
mor,2,8,inactive
CG2841,1,11,inactive
CG2841,2,5,inactive
CG13813,1,8,inactive
Acsl,1,10,inactive
SoxN,1,14,inactive
SoxN,2,,inactive
Mo25,1,4,inactive
aust,1,6,inactive
aust,2,5,inactive
CG32074,1,4,inactive
CG32074,2,8,inactive
Ir41a,1,9,inactive
Ir41a,2,7,inactive
asRNA:CR33945,1,6,inactive
asRNA:CR33945,2,6,inactive
Mgat2,1,2,inactive
Mgat2,2,6,inactive
Ir68a,1,4,inactive
mgr,1,7,inactive
CG4042,1,5,inactive
CG4042,2,6,inactive
CG13614,1,11,inactive
Exn,1,14,inactive
Exn,2,7,inactive
Exn,3,4,inactive
Exn,4,5,inactive
Sec71,1,3,inactive
msn,1,3,inactive
msn,2,7,inactive
msn,3,8,inactive
Bet5,1,11,inactive
CG5412,1,3,inactive
Cbp53E,1,6,inactive
Cbp53E,2,5,inactive
CG13908 (retired record),1,9,inactive
CG13908 (retired record),2,2,inactive
His2B:CG33894 + His2B:CG33872 + His2B:CG33902 + 20 more,1,3,inactive
Pcyt2,1,7,inactive
Patsas,1,5,inactive
Patsas,2,6,inactive
CG15531,1,5,inactive
CG15531,2,2,inactive
Ir56c,1,5,inactive
Ir56c,2,6,inactive
CG16739,1,4,inactive
OS9,1,6,inactive
OS9,2,7,inactive
CG44005,1,13,inactive
CG44005,2,6,inactive
Nf-YB,1,6,inactive
CG34370,1,9,inactive
CG34370,2,6,inactive
CG34370,3,4,inactive
CG34370,4,,inactive
CG34370,5,10,inactive
dx,1,8,inactive
dx,2,8,inactive
CG4390,1,10,inactive
CG4390,2,6,inactive
CG31493,1,5,inactive
Rab30,1,7,inactive
Rab30,2,9,inactive
CG10041,1,9,inactive
CG10041,2,4,inactive
Atg5,1,4,inactive
CG6012,1,5,inactive
CG13978,1,10,inactive
Cbl,1,9,inactive
Cbl,2,1,inactive
Cbl,3,3,inactive
CG7140,1,3,inactive
CG8180,1,6,inactive
CG8180,2,7,inactive
CG9776,1,4,inactive
Top1,1,7,inactive
lncRNA:CR33948,1,8,inactive
sta,1,6,inactive
sta,2,4,inactive
CG10660,1,6,inactive
CG10660,2,2,inactive
sei,1,8,inactive
sei,2,7,inactive
Atac2,1,3,inactive
CG33255 (retired record) + hpRNA:CR32205 + hpRNA:CR32207,1,22,inactive
Upf3,1,8,inactive
Upf3,2,6,inactive
al,1,11,inactive
CG11211,1,8,inactive
CG13501,1,3,inactive
Gr5a,1,11,inactive
Crag,1,7,inactive
Dh44-R2,1,9,inactive
Dh44-R2,2,3,inactive
ND-18,1,9,inactive
Nedd4,1,4,inactive
Nedd4,2,19,inactive
Nedd4,3,5,inactive
TpnC47D,1,5,inactive
CG32708,1,8,inactive
CG32708,2,8,inactive
TyrRII,1,3,inactive
TyrRII,2,2,inactive
Gbs-70E,1,8,inactive
CG12920,1,2,inactive
CG11843,1,5,inactive
CG1602,1,3,inactive
CG30457,1,6,inactive
CG30457,2,4,inactive
Root,1,8,inactive
vvl,1,5,inactive
vvl,2,7,inactive
Drsl1,1,10,inactive
Acbp1,1,3,inactive
Acbp1,2,7,inactive
homer,1,11,inactive
homer,2,6,inactive
CG12288,1,,inactive
CG14395,1,5,inactive
CG17855,1,5,inactive
CG12448,1,7,inactive
hll,1,6,inactive
CG4465,1,9,inactive
ana3,1,3,inactive
ana3,2,6,inactive
Eig71Ea,1,2,inactive
CG6912,1,9,inactive
bsh,1,7,inactive
bsh,2,6,inactive
CG12239,1,7,inactive
CG12239,2,4,inactive
Spg7,1,12,inactive
lectin-24A,1,2,inactive
Gr58c,1,4,inactive
